Taken from: PubChem BioAssay AID1259331 (Drosophila RNAi Screening Center, 2017)
This is one part, drawn at random, of about 3,100 reagents. 126 of all reagents (4.1%) count as active. 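Calls are per reagent; zinc was so toxic that few knock-downs lowered ATP further, so most hits raise ATP.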 Raw values vary from plate to plate and are shown uncorrected. A number with no mark means an inactive call. Reagent sequences are not shown. The record does not give: the amount of reagent.

Aim: 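Genes whose knock-down changes cell survival under toxic zinc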 (primary screen)
System: Drosophila S2R+ cells
Knock-down reagent: long dsRNA against Drosophila genes
Time to read-out: 5 days (4 days knock-down, then 1 day zinc)
Treatment: zinc chloride at 15 mM final level for 1 day
Measured: 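Luminescent ATP assay standing in for viability; Z score is the mean over three replicate plates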
Scale: mean Z score: higher = more ATP than other wells, better survival under zinc; ATP luminescence: higher = more ATP, more viable cells
Hit rule: 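Hit when the absolute Z score is greater than 1.5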
Calls: active = hit, ATP up or down; inactive = not a hit

Gene	amplicon	mean Z score	ATP luminescence, replicate 1	ATP luminescence, replicate 2
Arv1	DRSC11491	-0.526	57940	56705
Osi19	DRSC12569	-0.218	72886	56516
Oamb	DRSC13433	0.326	1.16e5	66060
Oamb	DRSC15120	2.95 (active)	75814	83855
Oamb	DRSC16763	0.43	35307	63273
galene	DRSC08640	-0.0901	67372	75467
galene	DRSC08641	0.0661	43777	44891
Drip	DRSC07405	0.241	85690	77577
CG7992	DRSC20070	-0.468	38942	38308
Ranbp21	DRSC19447	0.485	51669	52186
Ranbp21	DRSC39764	0.337	60546	61421
CG13078	DRSC02182	-0.153	48149	36130
ninaE	DRSC17014	0.215	35599	61181
ninaE	DRSC25724	-0.449	49572	40331
CG30049	DRSC21345	0.00822	48756	46863
CG30049	DRSC26709	-0.716	60015	40982
Stt3A	DRSC20514	-0.196	43924	42902
Stt3A	DRSC24884	-0.265	51666	63063
CG6006	DRSC13137	-0.494	36079	52775
CG6006	DRSC15946	0.507	49449	51424
CG8026	DRSC07056	-0.163	93678	71196
Ir56c	DRSC06544	-0.861	54047	57734
Ir56c	DRSC26227	-0.698	41102	55676
5-HT2B	DRSC16360	-0.295	36285	54819
5-HT2B	DRSC16362	-0.682	35839	47994
5-HT2B	DRSC25577	-0.305	48852	52744
trn	DRSC11407	-0.463	68349	49092
mol	DRSC01431	1.52 (active)	61054	65417
mol	DRSC23967	0.0845	56019	60306
rt	DRSC11391	-0.16	73752	55230
rt	DRSC39519	2.06 (active)	76033	78586
OXA1L	DRSC09672	-0.651	28090	25965
OXA1L	DRSC29571	0.154	62261	65314
hrm	DRSC04853	-0.125	1.07e5	70973
Gr58a	DRSC03910	0.194	39127	48989
CR33013	DRSC06286	-0.0793	75621	70407
CR33013	DRSC25681	-0.204	58265	58231
CG5002	DRSC06911	-0.0423	28330	36850
dmGlut	DRSC02835	-0.692	44119	48937
dmGlut	DRSC25891	-0.648	44163	46782
ed	DRSC00350	0.094	54253	61047
ed	DRSC00439	0.0406	37245	60015
ed	DRSC00478	0.173	58057	41342
Ork1	DRSC20266	-0.156	42902	48237
Ork1	DRSC39464	0.0411	50471	49034
Srg2	DRSC10681	-0.126	30816	32462
Srg2	DRSC24667	-0.00532	58883	52497
Eph	DRSC17164	-0.682	55162	54321
Eph	DRSC36767	0.0841	50086	46091
Eph	DRSC36768	0.188	47943	51407
CG14971	DRSC08430	-0.0516	34885	27919
CG5823	DRSC15881	-0.123	41496	47631
CG5823	DRSC39656	0.185	65828	63736
CG32986	DRSC02509	0.00568	52658	38417
CG32986	DRSC39699	0.171	63547	61901
MstProx	DRSC12458	0.194	65262	73354
MstProx	DRSC12601	0.0999	45508	46331
ACXA	DRSC25338	-0.0636	55573	53519
ACXA	DRSC39549	0.0391	58643	62621
PIG-A	DRSC06982	0.0892	32907	30902
Amnionless	DRSC00317	-0.581	38428	39197
lz	DRSC25157	-0.137	51801	53658
lz	DRSC37587	-0.0159	46828	51269
PlexA	DRSC17220	-0.277	41950	42079
Rh7	DRSC10529	-0.321	27439	30199
Rh7	DRSC28331	2.08 (active)	1.06e5	80647
zpg	DRSC09702	-0.218	70956	55539
zpg	DRSC26258	-0.0662	58577	57717
CG7458	DRSC11829	-0.385	37519	40201
CG7458	DRSC21340	-0.442	40073	44222
Fas2	DRSC17308	2.76 (active)	71419	73169
Fas2	DRSC17309	-0.175	73615	69361
Fas2	DRSC18664	-0.512	40530	38539
Ranbp16	DRSC20160	-0.0876	64148	65056
Oatp58Db	DRSC04364	0.0152	66394	66205
VhaM9.7-b	DRSC11841	-0.114	74266	58608
Hsepi	DRSC04986	1.3	1.20e5	95606
Hsepi	DRSC26089	0.0568	56031	58214
Sc2	DRSC08162	-0.281	29898	27405
Sc2	DRSC26153	0.161	57768	58934
Tsp42Er	DRSC06183	-0.661	72637	61227
CG32091	DRSC10820	-0.15	72620	53398
CG32091	DRSC39787	0.115	57469	58231
Snmp2	DRSC10228	-0.313	70836	54716
Snmp2	DRSC10843	-0.295	39041	41976
JhI-21	DRSC02161	-0.424	50481	49966
JhI-21	DRSC29181	0.0687	65554	59294
